Experimental data published in article PMC2935968.
These are yes or no findings as the source states them, for the method shown. Some binding calls cover weakened binding; strength is not graded here. For some of these results: Sequences can lack the tags named with a protein.

Key:
[1] = substrate: T1, CS domain of cress (Arabidopsis thaliana) Sgt1a (Arabidopsis thaliana) (UniProt Q9SUR9); assay: crystal structure; Hsp90 N domain, Sgt1a CS domain and Rar1 CHORDII domain combined 1:1:1 with 5 mM ADP; crystals at 20°C from 100 mM HEPES pH 7.5, 23% w/v PEG5000 MME; heterohexameric ring; 2.2 Å; both purified
T1 sequence: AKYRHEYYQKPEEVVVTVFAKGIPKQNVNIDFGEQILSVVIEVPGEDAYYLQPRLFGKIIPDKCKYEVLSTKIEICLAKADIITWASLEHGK

[2] = biological target: Hsp90 (not stated (Arabidopsis, H. vulgare or T. aestivum constructs)) (UniProt Q7XJ80); assay: pull-down; GST-Sgt1 as bait, Hsp90 and a Rar1 construct or mutant both present; both purified
[3] = biological target: Hsp90 (not stated (Arabidopsis, H. vulgare or T. aestivum constructs)) (UniProt Q7XJ80); assay: pull-down; GST-Rar1 as bait, Hsp90, increasing amounts of untagged Rar1 in competition; both purified
[4] = biological target: T2, GST-Rar1 (wild type) (Arabidopsis thaliana), Q9SE33; assay: pull-down; GST-Rar1 as bait, Hsp90, untagged Rar1 and Sgt1-CS present; both purified; details: remark: other sources report otherwise
T2 chain: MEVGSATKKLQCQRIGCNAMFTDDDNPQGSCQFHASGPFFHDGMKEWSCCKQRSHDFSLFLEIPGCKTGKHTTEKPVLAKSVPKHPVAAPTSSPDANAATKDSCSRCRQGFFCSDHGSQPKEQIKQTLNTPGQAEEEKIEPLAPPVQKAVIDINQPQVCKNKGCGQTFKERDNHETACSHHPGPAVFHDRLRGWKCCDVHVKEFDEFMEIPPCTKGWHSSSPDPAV

[5] = biological target: T2, GST-Rar1 (wild type) (Arabidopsis …); assay: pull-down; GST-Rar1 as bait, Hsp90, increasing amounts of untagged Rar1 in competition; both purified; details: remark: other sources report otherwise

B1: CHORDII domain of cress (Arabidopsis thaliana) Rar1 (domain or fragment, UniProt Q9SE33 149-221)
chain: AVIDINQPQVCKNKGCGQTFKERDNHETACSHHPGPAVFHDRLRGWKCCDVHVKEFDEFMEIPPCTKGWHSSS
B1 was tested, and the binding [1] was “binds”.

B2: Rar1 I153Q (prey of GST-Sgt1) (protein, UniProt Q9SE33 1-226)
chain: MEVGSATKKLQCQRIGCNAMFTDDDNPQGSCQFHASGPFFHDGMKEWSCCKQRSHDFSLFLEIPGCKTGKHTTEKPVLAKSVPKHPVAAPTSSPDANAATKDSCSRCRQGFFCSDHGSQPKEQIKQTLNTPGQAEEEKIEPLAPPVQKAVIDQNQPQVCKNKGCGQTFKERDNHETACSHHPGPAVFHDRLRGWKCCDVHVKEFDEFMEIPPCTKGWHSSSPDPAV
For B2, the binding [2] was “binds”.

B3: Rar1 E170K (prey of GST-Sgt1) (protein, UniProt Q9SE33 1-226)
chain: MEVGSATKKLQCQRIGCNAMFTDDDNPQGSCQFHASGPFFHDGMKEWSCCKQRSHDFSLFLEIPGCKTGKHTTEKPVLAKSVPKHPVAAPTSSPDANAATKDSCSRCRQGFFCSDHGSQPKEQIKQTLNTPGQAEEEKIEPLAPPVQKAVIDINQPQVCKNKGCGQTFKKRDNHETACSHHPGPAVFHDRLRGWKCCDVHVKEFDEFMEIPPCTKGWHSSSPDPAV
B3 was tested, and the binding [2] was “binds”.

B4: Rar1 W217T (prey of GST-Sgt1) (protein, UniProt Q9SE33 1-226)
chain: MEVGSATKKLQCQRIGCNAMFTDDDNPQGSCQFHASGPFFHDGMKEWSCCKQRSHDFSLFLEIPGCKTGKHTTEKPVLAKSVPKHPVAAPTSSPDANAATKDSCSRCRQGFFCSDHGSQPKEQIKQTLNTPGQAEEEKIEPLAPPVQKAVIDINQPQVCKNKGCGQTFKERDNHETACSHHPGPAVFHDRLRGWKCCDVHVKEFDEFMEIPPCTKGTHSSSPDPAV
For B4, the binding [2] was “binds”.

B5: Rar1 (wild type, not GST-tagged) (protein, UniProt Q9SE33 1-226)
chain: MEVGSATKKLQCQRIGCNAMFTDDDNPQGSCQFHASGPFFHDGMKEWSCCKQRSHDFSLFLEIPGCKTGKHTTEKPVLAKSVPKHPVAAPTSSPDANAATKDSCSRCRQGFFCSDHGSQPKEQIKQTLNTPGQAEEEKIEPLAPPVQKAVIDINQPQVCKNKGCGQTFKERDNHETACSHHPGPAVFHDRLRGWKCCDVHVKEFDEFMEIPPCTKGWHSSSPDPAV
With B5 the binding [3] was “binds”.

B6: Rar1 (wild type, not GST-tagged), Q9SE33 1-226 (protein)
chain: MEVGSATKKLQCQRIGCNAMFTDDDNPQGSCQFHASGPFFHDGMKEWSCCKQRSHDFSLFLEIPGCKTGKHTTEKPVLAKSVPKHPVAAPTSSPDANAATKDSCSRCRQGFFCSDHGSQPKEQIKQTLNTPGQAEEEKIEPLAPPVQKAVIDINQPQVCKNKGCGQTFKERDNHETACSHHPGPAVFHDRLRGWKCCDVHVKEFDEFMEIPPCTKGWHSSSPDPAV
B6 was tested, and the binding [4] was “no binding” and the binding [5] was “no binding”.
